Among all 400,000 compounds or so, about 5,500 (1.4%) were called active. This list was built around the results that the source calls inconclusive (neither active nor inactive); the mix of calls is not that of the screen. Calls come from the whole dose curve; as a rule, active = well fitted cell-killing curve with a large enough effect; inconclusive = small, poorly fitted or top-dose-only effect, or effect the other way; inactive = flat fitted curve, though single readings scatter. A potency beside an inconclusive call is a rough fit, not a confirmed value.
Assay: qHTS assay for MDR1-selective chemotherapeutics: Primary screen using the parental adenocarcinoma cell KB-3-1; note: nearly all actives have a fitted effect of over 60% in size
Details: KB-3-1 viability, CellTiter-Glo ATP luminescence, 72 h; activity change, negative = cytotoxic: at 46.1 µM (top of the series)
Method in brief: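 Cytotoxicity in the drug-sensitive parental line KB-3-1 was scored as loss of CellTiter-Glo luminescence following 72 h incubation with compound. Values come from curve fitting of normalized concentration-response data.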
% is set by controls: 0 for no effect and ±100 for the full control effect; potency is the fitted concentration of half-maximal effect.

Structure (SMILES) | Potency | activity change, negative = cytotoxic
O=C1CN(C(=O)COC(=O)/C=C/c2ccc(F)cc2)c2ccccc2N1 | inconclusive: 0.013 µM [rising, full curve] | 
O=C1CC(NCC2CCCO2)C(=O)N1c1ccc(Cl)cc1 (configuration not stated) |  | inconclusive: 1.14%
COc1ccc(-c2cn(-c3ccc(C)c(Cl)c3)c(=S)[nH]2)cc1OC | active: 16.4 µM | 
COc1cc(-c2nc3ccc4ccccc4c3c3c2CCC3)cc(OC)c1O | inconclusive: 20.6 µM [cytotoxic, single point] | 
COc1cccc(-n2c(SCC(=O)Nc3nnc(C)s3)nc3c([nH]c4ccccc43)c2=O)c1 |  | inactive: -2.69%
COc1ccccc1OC1OC2COC(c3ccco3)OC2C(O)C1NC(C)=O (configuration not stated) | inconclusive: 13 µM [rising, partial curve, poor fit] | 
CCCCN1C(=O)C(CC(=O)NCCc2ccccn2)CC(C(=O)N2CCOCC2)=C1C (configuration not stated) |  | inactive: -5.8%
N#Cc1ccc(-c2ccco2)nc1SCC(=O)c1ccc(Cl)cc1 |  | inactive: 18.6%
O=C(Nc1cccc(C(F)(F)F)c1)c1cc2nc(-c3ccc4c(c3)OCO4)cc(C(F)(F)F)n2n1 |  | inactive: 15.5%
Cc1sc2ncnc(N3CCN(S(=O)(=O)c4ccc(Br)cc4)CC3)c2c1C | inconclusive: 18.4 µM [cytotoxic, single point] | 
CC/C(=C\c1ccccc1)c1cccc2oc3ccccc3c12 |  | inactive: -2.57%
O=[N+]([O-])c1ccc2nc(Cl)nc(-c3ccccc3)c2c1 |  | inactive: -6.13%
CCCNC(=O)c1ccccc1NC(=O)c1ccc2c(c1)NC(=O)C(C)S2 (configuration not stated) | inconclusive: 7.31 µM [cytotoxic, partial curve, poor fit] | 
CCN1CCCC1CNCc1cccc(OC)c1OCc1ccc(F)cc1 (configuration not stated) |  | inactive: 4.6%
Cc1ccc(Cn2cc(C(=O)c3ccc4c(c3)OCO4)c(=O)c3cc(C)ccc32)cc1 |  | inactive: 6.79%
CC1CCc2c(sc3nc(SCC(=O)O)n(-c4ccccc4)c(=O)c23)C1 (configuration not stated) |  | inactive: 10.2%
CCC(c1nnnn1-c1ccc2c(c1)OCCO2)N1CCN(C(=O)C2CCCO2)CC1 (configuration not stated) |  | inactive: 20.4%
O=C(CN1C(=O)NC2(CCCCCC2)C1=O)NC1CC1 | inconclusive: 25.9 µM [cytotoxic, single point] | 
NS(=O)(=O)c1ccc(N2N=C(c3ccccc3)CC2c2ccccc2Br)cc1 (configuration not stated) |  | inactive: 9.34%
O=C(Nc1nc2cc3c(cc2s1)OCO3)C1CC1 |  | inactive: -11.1%
CC(=O)c1cccc(NC(=O)c2cc(-c3ccco3)on2)c1 |  | inactive: 23.7%
Nc1cc(S(=O)(=O)c2ccc(N3CCCCC3)c(N)c2)ccc1N1CCCCC1 | inconclusive: 16.4 µM [cytotoxic, partial curve] | 
Cc1ccc(Cl)cc1N1CCN(C(=O)C2CCCN(S(=O)(=O)c3cnc[nH]3)C2)CC1 (configuration not stated) | inconclusive: 29.1 µM [cytotoxic, single point] | 
Cc1ccc(S(=O)(=O)c2cc3c(=O)n4ccccc4nc3n(C3CCCC3)c2=N)cc1 |  | inactive: 6.51%

Structure (SMILES) | Potency | activity change, negative = cytotoxic
CCOC(=O)c1sc(=NC(=O)CCS(=O)(=O)c2ccccc2)n(C)c1C | inconclusive: 29.1 µM [rising, single point] | 
Cc1ccc(NC(=O)c2cc(S(=O)(=O)N3CCOCC3)ccc2Cl)cc1S(=O)(=O)N1CCOCC1 |  | inactive: 11.2%
Cc1cc(C)cc(-n2c3ccc(NC(=S)NC4CCCCC4)cc3c(=O)n2C)c1 | inconclusive: 29.1 µM [cytotoxic, single point] | 
CCN(CC)S(=O)(=O)c1cccc(-c2nnc(SCc3nc4ccccc4s3)o2)c1 | inconclusive: 18.4 µM [cytotoxic, single point] | 
O=C(/C=C/c1ccc([N+](=O)[O-])cc1)Nc1ncc([N+](=O)[O-])s1 | inconclusive: 25.9 µM [cytotoxic, single point] | 
CCOC(=O)C(C)Sc1nc(-c2ccccc2Cl)cc(-c2ccccc2)c1C#N (configuration not stated) |  | inactive: 0.325%
COc1ccc(C)cc1Nc1n[n+](C)c(-c2ccc(O)cc2O)s1 |  | inactive: 1.45%
CCN(c1ccccc1)S(=O)(=O)c1ccc(-c2cc(C)no2)s1 | inconclusive: 29.1 µM [cytotoxic, single point] | 
CC[C@]1(O)C[C@@H]2CN(CCc3c([nH]c4ccccc34)[C@@](C(=O)OC)(c3cc4c(cc3OC)N(C)[C@H]3[C@@](O)(C(=O)OC)[C@H](OC(C)=O)[C@]5(CC)C=CCN6CC[C@]43[C@@H]65)C2)C1 | active: 0.164 µM | 
CC(=O)c1cccc(Nc2cc(C)nc3ccc(C)cc23)c1 | inconclusive: 14.6 µM [cytotoxic, partial curve] | 
O=C(NNC(=S)NC1CCCCC1)c1cccs1 |  | inactive: 1.53%
O=C(Nc1cccc(C(F)(F)F)c1)C1Cc2c(-c3ccccc3Oc3ccccc3)ccnc2O1 (configuration not stated) | inconclusive: 18.4 µM [cytotoxic, single point] | 
CCCSc1ncc(Cl)c(C(=O)Nc2sc3c(c2C(=O)NCCCOC)CCCC3)n1 |  | inconclusive: 36.3%
CC(=O)Nc1ccc(S(=O)(=O)NCCC(=O)Nc2ccc(C)c(Cl)c2)cc1 |  | inactive: 20.6%
CCOC(=O)c1c(NC(=O)CSc2nnc(N)s2)sc(C)c1-c1ccc(C)cc1 |  | inactive: -24.7%
Nc1nn(-c2ccccc2)c(N)c1N=Nc1cccc(F)c1 | active: 5.8 µM | 
CCc1ccc(NC(=O)CSc2nc3ccccc3c(=O)n2CCCC(=O)N2CCCC2)cc1 | inconclusive: 10.3 µM [cytotoxic, partial curve, poor fit] | 
O=C(C[n+]1ccccc1Cl)c1ccc(I)cc1 | inconclusive: 29.1 µM [rising, single point] | 
CC(C)(C)c1ccc(OC(=O)c2ccccc2)cc1 | inconclusive: 0.13 µM [rising, full curve] | 
CCOc1ccccc1NC(=O)c1nnn(-c2ccc3c(c2)OCCO3)c1N | inconclusive: 16.4 µM [cytotoxic, partial curve, poor fit] | 
Cc1ccc(S(=O)(=O)N(CC(=O)N=Nc2c(O)[nH]c3ccccc23)c2ccc(C)c(C)c2)cc1 | inconclusive: 29.1 µM [cytotoxic, single point] | 
Cc1cc(=O)n2[nH]c(N)c(N=Nc3ccccc3F)c2n1 | active: 20.6 µM | 
CC[C@H](C)[C@H]1O[C@]2(CC[C@@H]1C)C[C@@H]1C[C@@H](CC=C(C)[C@@H](O[C@H]3C[C@H](OC)[C@@H](O[C@H]4C[C@H](OC)[C@@H](O)[C@H](C)O4)[C@H](C)O3)[C@@H](C)C=CC=C3CO[C@@H]4[C@H](O)C(C)=C[C@@H](C(=O)O1)[C@]34O)O2 | active: 7.31 µM | 

Already shown: 15 of the compounds above.
Structure (SMILES) | Potency | activity change, negative = cytotoxic
CCN(CC)S(=O)(=O)c1cccc(-c2nnc(SCc3nc4ccccc4s3)o2)c1 | inconclusive: 18.4 µM [cytotoxic, single point] | 
O=C(/C=C/c1ccc([N+](=O)[O-])cc1)Nc1ncc([N+](=O)[O-])s1 | inconclusive: 25.9 µM [cytotoxic, single point] | 
CCOC(=O)C(C)Sc1nc(-c2ccccc2Cl)cc(-c2ccccc2)c1C#N (configuration not stated) |  | inactive: 0.325%
COc1ccc(C)cc1Nc1n[n+](C)c(-c2ccc(O)cc2O)s1 |  | inactive: 1.45%
CCN(c1ccccc1)S(=O)(=O)c1ccc(-c2cc(C)no2)s1 | inconclusive: 29.1 µM [cytotoxic, single point] | 
CC[C@]1(O)C[C@@H]2CN(CCc3c([nH]c4ccccc34)[C@@](C(=O)OC)(c3cc4c(cc3OC)N(C)[C@H]3[C@@](O)(C(=O)OC)[C@H](OC(C)=O)[C@]5(CC)C=CCN6CC[C@]43[C@@H]65)C2)C1 | active: 0.164 µM | 
CC(=O)c1cccc(Nc2cc(C)nc3ccc(C)cc23)c1 | inconclusive: 14.6 µM [cytotoxic, partial curve] | 
O=C(NNC(=S)NC1CCCCC1)c1cccs1 |  | inactive: 1.53%
O=C(Nc1cccc(C(F)(F)F)c1)C1Cc2c(-c3ccccc3Oc3ccccc3)ccnc2O1 (configuration not stated) | inconclusive: 18.4 µM [cytotoxic, single point] | 
CCCSc1ncc(Cl)c(C(=O)Nc2sc3c(c2C(=O)NCCCOC)CCCC3)n1 |  | inconclusive: 36.3%
CC(=O)Nc1ccc(S(=O)(=O)NCCC(=O)Nc2ccc(C)c(Cl)c2)cc1 |  | inactive: 20.6%
CCOC(=O)c1c(NC(=O)CSc2nnc(N)s2)sc(C)c1-c1ccc(C)cc1 |  | inactive: -24.7%
Nc1nn(-c2ccccc2)c(N)c1N=Nc1cccc(F)c1 | active: 5.8 µM | 
CCc1ccc(NC(=O)CSc2nc3ccccc3c(=O)n2CCCC(=O)N2CCCC2)cc1 | inconclusive: 10.3 µM [cytotoxic, partial curve, poor fit] | 
O=C(C[n+]1ccccc1Cl)c1ccc(I)cc1 | inconclusive: 29.1 µM [rising, single point] | 

From PubChem BioAssay AID1347075 (National Center for Advancing Translational Sciences (NCATS), 2019)
